# Data reported in publication PMC8482512, “Aim32 is a dual-localized 2Fe-2S mitochondrial protein that functions in redox quality control” (The Journal of Biological Chemistry, 2021).
# No constants are given. Whether binding was seen depends on the method and setting. In cells and extracts the contact can be indirect. Some binding calls cover weakened binding; strength is not graded here. Tags and fused reporters may be left off the sequences shown.
# T1: Erv1 with a C-terminal histidine tag (Erv1-His) (S. cerevisiae) (UniProt P27882)
# T1 sequence: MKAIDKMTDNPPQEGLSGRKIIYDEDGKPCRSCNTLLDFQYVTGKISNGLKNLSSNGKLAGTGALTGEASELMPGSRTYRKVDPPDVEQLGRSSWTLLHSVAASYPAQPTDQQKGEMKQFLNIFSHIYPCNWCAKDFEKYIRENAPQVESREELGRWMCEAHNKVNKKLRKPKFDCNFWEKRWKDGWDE
# B1: Mia40 (protein, UniProt P36046 32-403)
# chain: MASSPQFGRNSNQEKTAGFIMGILSMAGALYFIAPNRKPLFASRKVESDKTAEEELSSGGEQSPENEDDNNSKSDENGDDNDSKNDETEAGPQLGGDKIGASKVAEDGELVVLAEEDNKSSEDKDTDESKVSTKDDEQSNEDNATANNQKDENISSENSEENTSDKTLDNNAGSSEKKDPEHSDDEKSQQGQSDDKTTTEDNNGEEESSKKTVSDSENSAKQSESSDEEKEELRKQEEKQMGPTEEEVQHEGAYNPDTGEINWDCPCLGGMAHGPCGEEFKSAFSCFVYSEAEPKGIDCVEKFQHMQDCFRKYPEHYAEQLKETSDDEEPQDKVKVNTIESAPNVSSAKENAAKKAEQSDVKKEPLNEESKP
# Target: T1, Erv1 with a C-terminal histidine tag (Erv1-His) (S. cerevisiae)
# Assay: pull-down; mitochondria of His-tagged strains solubilized in 1% digitonin, 500 μg lysate incubated with Ni2+-agarose beads, washed, eluted, immunoblot; untagged WT strain as control
binder,measurement,value
B1,binding,binds
